Assay results taken from US8470340B2 (priority 2008, dated 2013).
Plain letter strings leave the end groups untold.

Assay: peptide synthesis
Conditions: whole synthesis

Row | Sequence | purity (crude or final not stated) (one disulfide bridge, sequence written open) [%] | purity (crude or final not stated) [%]
1 | AEGEFCGGVYDDKTGCAPDPAKC | 75.6 | 
2 | AEGEFHDHKLEGTEDPAKC (conjugated to KLH) |  | 89.1
3 | AEGEFHDHKTQLDPDPAKC (conjugated to KLH) |  | 96.9
4 | AEGEFWTLAVFDHKAQTGDPAKC (conjugated to KLH) |  | 92.0
5 | ALTAPLDHKDKGLQSDPAKC (conjugated to KLH) |  | 80.8
6 | AQAFQTPVHSDPAKC (conjugated to KLH) |  | 91.5
7 | FDFIRQIEVDGQLITLESGEDPAKC |  | 85.4
8 | HFVQQTPQSQDPAKC (conjugated to KLH) |  | 81.9
9 | TKDDPLKQHLALSAGDPAKC (conjugated to KLH) |  | 91.0
